The text below walks through data of the supplement of paper PMC5949888.

Most values lie at the floor of the assay. Slopes are relative: functional sequences can read slightly below zero.

This data set concerns Saccharomyces cerevisiae PS128 hsf1 delta, HSF1(1-493) fusion. Kind of data set: growth estimate (transactivation domain function in HSF1 fusion, heat-shock survival) (a.u. (slope of normalised read count over time)); higher = stronger growth at 37°C, i.e. more transactivation activity. The note with it: library: random library.
Regarding HFLQ, the growth estimate is below -0.25.

Regarding EGKHFTSARGDVRPRDTAIH, the growth estimate is below -0.25. The result for GKYTANFRICYASWRDAQRR reads below -0.25. Take GVRMIGARQFKVELQCSKLG: the growth estimate was below -0.25. The value for SNRPKIILSWFSMLRTEHS was below -0.25; that for HIKTALVLTP was below -0.25. For VCNRCRSM, the growth estimate is -0.009. On to LKFQHPKPGK, for which the growth estimate was -0.245. The result for HCGFLLLNLYRQIRLVGYEV reads below -0.25. The result for AESQESREHTEDVRIGLQPF reads below -0.25; that for IENRDLPLKFVGIGGVTNLQ, -0.245; that for LIMSLYLGLLDRTP, -0.248. The result for VTRVLSPHISNAFTFERPIY reads below -0.25. As to LCTAWVKRSGSLYGVG, the growth estimate was below -0.25. The value for KNRPYRPGISMTAPSYNADL was below -0.25. As to GLGI, the growth estimate is below -0.25. RVRIDSQR: the growth estimate was below -0.25. On to VVVPTP, for which the growth estimate is below -0.25. As for NKFGLQHCSGS, the growth estimate was below -0.25. Regarding APAV, the growth estimate is below -0.25. The value for SECATHRGAEYRGSRLTDVA was below -0.25; that for QHWAEACVSDWRIGVPLAPT was below -0.25. The value for LIRLPTAMHSSGYCHGTLFY was below -0.25; that for RCRRIRADLHAISGRETTNL was below -0.25; that for NRNGSAMGSLRM was below -0.25. Turning to EGPSAPEVSRGLLIERLLAC, the growth estimate was below -0.25. The value for LLLKRTYGR was below -0.25; that for DRILFHRTPLTRTGVQPLTS was below -0.25.

On to KWVSLMVRRRD, for which the growth estimate was below -0.25. Turning to GRLLVC, the growth estimate was below -0.25.

Take NEAAVLRNFWGIPGYVLSPP: the growth estimate was below -0.25.

Consider GMRAPSTLGKQGRCKKLWRA, for which the growth estimate was below -0.25.

For DPF, the growth estimate was below -0.25. Consider ICATLRTILG, for which the growth estimate is below -0.25.

Consider LYDAEFHIIDRVVPNLASPV, for which the growth estimate was -0.246. The value for GHYCFLG was below -0.25; that for DARAPGLVLI was below -0.25.

As for GFCFP, the growth estimate was below -0.25.

With QPRTPRWSAGLRERPTLVKP, the growth estimate is below -0.25. The result for VNLHIQVTRVVKRQVFLRGP reads below -0.25. Take MSRGSLSTRKWYCGGPKISV: the growth estimate was -0.245. The result for MVQIDCGMKGDLGRH reads below -0.25.

Consider KVEPLKLTEGRF, for which the growth estimate was below -0.25.

Take KWRRGCRKIAKSL: the growth estimate was below -0.25.

For GGRVGTCGGVNRVAEFPRQD, the growth estimate was below -0.25.

VHVH: the growth estimate was -0.243. The result for STESWLEGSVF reads -0.221; that for QLVNSASEPIRRMVSVILIT, below -0.25. The value for KGKHIRVLVCSRQCHIKVVH was below -0.25; that for RTVAHWAYGMGSSVLGWQER was below -0.25. The value for RDEC was below -0.25; that for TRGVFLVHSTPPLGEVTEPE was below -0.25; that for SADNRACSAFFGMGN was below -0.25.

As to IIT, the growth estimate was 0.0112. The value for WEDLCAA was below -0.25. As for HRG, the growth estimate was below -0.25. With SSSNFLEGCDRDPVLDVSVR, the growth estimate was below -0.25. The value for RNK was below -0.25; that for GPGHYRMVPCASSKYAAVQT was below -0.25; that for SQSRLSGGPFQRFLHSGCCG was below -0.25. As for GTIADGLNRESGYPLVP, the growth estimate was below -0.25. With RNQKPVLWPRQLWGLVTPIM, the growth estimate is below -0.25. In the case of VLARHSSAHPSCKARCSRKY, the growth estimate is below -0.25. In the case of DVLSEGYGAISFNRFTPRRT, the growth estimate is below -0.25.

On to GEGDESR, for which the growth estimate is below -0.25. Turning to PGCQNDARDNPTGKPGVHLP, the growth estimate was below -0.25. The value for IPQYLHLIVPYRVRRSAAGV was below -0.25; that for PRTTHE was below -0.25; that for NSDIRKGPIHSRTARPGTEF was below -0.25.

On to PVYSTVTRRATTLPGGTPGA, for which the growth estimate was below -0.25. The value for HIETQHSFTQ was below -0.25. The result for RFLRTHYLRSGY reads below -0.25; that for RGIRAAQLLTRALYPIPCRR, below -0.25; that for LGLTNSRAHYNPCMSICHWA, below -0.25. The result for RYGIDRVLGAPGDNALFLGC reads below -0.25; that for APERSY, below -0.25. As for SLRAAAIYMTADLHYKTSRT, the growth estimate was below -0.25. Regarding VVRRELWAVGLCNDQIKCGK, the growth estimate was below -0.25.
